Where a chain is given by its changes, count along the chain named.
B1: antibody-16: optimized anti-human CD3ε chain and anti-human GPC3 bispecific antibody (antibody)
heavy 1: QVQLVESGGGLVQPGRSLRLSCAASGFTFSNAWMHWVRQAPGKGLEWVAQIKDKSQNYATYYAESVKGRFTISRADSKNSIYLQMNSLKTEDTAVYYCRYVHYSASYGVDAWGQGTTVTVSSASTKGPSVFPLAPCSRSTSESTAALGCLVKDYFPEPVTVSWNSGALTSGVHTFPAVLQSSGLYSLSSVVTVPSSSLGTKTYTCNVDHKPSNTKVDKRVESKYGPPCPPCPAPEFRGGPKVFLFPPKPKDTLMISRTPEVTCVVVDVSQEDPEVQFNWYVDGVEVHNAKTKPREEQFASTYRVVSVLTVLHQDWLNGKEYKCKVSNKGLPSSIEKTISKAKGQPREPQVYTLPPSQKEMTKNQVSLTCLVKGFYPSDIAVEWESNGQPENNYKTTPPVLDSDGSFFLYSKLTVDKSRWQEGNVFSCSVMHEALHNRYTQKSLSLSP
heavy 2: QVQLVQSGAEVKKPGASVKVSCKASGYTFTDYEMHWIRQPPGQGLEWIGAIDGKTPDTAYSQKFKGRVTLTADKSTSTAYMELSSLTSEDTAVYYCTRFYSYTYWGQGTLVTVSSASTKGPSVFPLAPCSRSTSESTAALGCLVKDYFPEPVTVSWNSGALTSGVHTFPAVLQSSGLYSLSSVVTVPSSSLGTQTYTCNVDHKPSNTKVDKRVESKYGPPCPPCPAPEFRGGPKVFLFPPKPKDTLMISRTPEVTCVVVDVSQEDPEVQFNWYVDGVEVHNAKTKPREEQFASTYRVVSVLTVLHQDWLNGKEYKCKVSNKGLPSSIEKTISKAKGQPREPQVYTLPPSQEEMTKNQVSLTCLVKGFYPSDIAVEWESNGQPENNYKTTPPVLDSDGSFFLYSKLTVDKSRWQEGNVFSCSVMHEALHNHYTQESLSLSP
light: DIVMTQSPLSLPVTPGEPASISCRSSQSPVHSNRNTYLHWYQQKPGQAPRLLIYKVSNRFRGVPDRFSGSGSGTDFTLKISRVEAEDVGVYYCGQGTQVPYTFGQGTKLEIKRTVAAPSVFIFPPSDEQLKSGTASVVCLLNNFYPREAKVQWKVDNALQSGNSQESVTEQDSKDSTYSLSSTLTLSKADYEKHKVYACEVTHQGLSSPVTKSFNRGEC
B2: antibody-37: optimized anti-human CD3ε chain and anti-human GPC3 bispecific antibody (antibody)
heavy 1: B1 heavy 1 with L11V, R16G, Y62V, S104A, S106G, A111I
heavy 2: B1 heavy 2 with K19T, Q43E, K54P, Q62E
light: B1 light with S28P, P29L, R61S
B3: antibody-32: optimized anti-human CD3ε chain and anti-human GPC3 bispecific antibody (antibody)
heavy 1: B1 heavy 1 with L11V, R16G, S104A, S106G, A111I
heavy 2: B1 heavy 2 with K19T, Q43E, K54P, Q62E
light: B1 light with S28P, P29L, R61S
B4: antibody-26: optimized anti-human CD3ε chain and anti-human GPC3 bispecific antibody (antibody)
heavy 1: B1 heavy 1 with A75D, I81L, S104A
heavy 2: B1 heavy 2 with K19T, Q43E, K54E, Q62E
light: B1 light with S25P, R61S, G94Y
B5: antibody-33: optimized anti-human CD3ε chain and anti-human GPC3 bispecific antibody (antibody)
heavy 1: B1 heavy 1 with A75D, I81L, S104A, S106G
heavy 2: B1 heavy 2 with K19T, Q43E, K54P, Q62E
light: B1 light with S28P, P29L, R61S
B6: antibody-36: optimized anti-human CD3ε chain and anti-human GPC3 bispecific antibody (antibody)
heavy 1: B1 heavy 1 with L11V, R16G, Y62V, S104A, S106G, A111I
heavy 2: B1 heavy 2 with K19T, I37V, P40A, Q43E, I48M, K54E, Q62E
light: B1 light with S28P, P29L, R61S
B7: antibody-8: anti-human CD3ε chain and anti-human GPC3 bispecific antibody (antibody)
heavy: EVQLVETGGSLVQPGKSLKLTCATSGFTFSNAWMHWVRQSPEKQLEWVAQIKAKSNNYATYYAESVKGRFTISRDDSKSNIYLQMNSLKEEDTAVYYCRYVHYGAYYGVDAWGQGTSVTVSSASTKGPSVFPLAPSSKSTSGGTAALGCLVKDYFPEPVTVSWNSGALTSGVHTFPAVLQSSGLYSLSSVVTVPSSSLGTQTYICNVNHKPSNTKVDKKVEPKSCDKTHTCPPCPAPEAAGGPSVFLFPPKPKDTLMISRTPEVTCVVVDVSHEDPEVKFNWYVDGVEVHNAKTKPREEQYASTYRVVSVLTVLHQDWLNGKEYKCKVSNKALPAPIEKTISKAKGQPREPQVYTLPPSRCELTKNQVSLSCAVKGFYPSDIAVEWESNGQPENNYKTTPPVLDSDGSFFLVSKLTVDKSRWQQGNVFSCSVMHEALHNHYTQKSLSLSPDYKDDDDK
light: DVVMTQTPVSMSVSLGGQVSISCRSSQSLVHNNGNTYVSWYIQKPSQSPQLLIYKVSNRFSGISDRFSGSGSGTDFTLKISRVEPDDLGVYYCGQGTQDPYTFGAGTKLELKRTVAAPSVFIFPPSDEQLKSGTASVVCLLNNFYPREAKVQWKVDNALQSGNSQESVTEQDSKDSTYSLSSTLTLSKADYEKHKVYACEVTHQGLSSPVTKSFNRGEC
chain 1: DIVMTQSPLSLPVTPGEPASISCRSSQSLVHSNRNTYLHWYQQKPGQAPRLLIYKVSNRFSGVPDRFSGSGSGTDFTLKISRVEAEDVGVYYCSQNTHVPPTFGQGTKLEIKSSASTKGPSVFPLAPSSKSTSGGTAALGCLVKDYFPEPVTVSWNSGALTSGVHTFPAVLQSSGLYSLSSVVTVPSSSLGTQTYICNVNHKPSNTKVDKKVEPKSCDKTHTCPPCPAPEAAGGPSVFLFPPKPKDTLMISRTPEVTCVVVDVSHEDPEVKFNWYVDGVEVHNAKTKPREEQYASTYRVVSVLTVLHQDWLNGKEYKCKVSNKALPAPIEKTISKAKGQPREPQVCTLPPSRDELTKNQVSLWCLVKGFYPSDIAVEWESNGQPENNYKTTPPVLDSDGSFFLYSKLTVDKSRWQQGNVFSCSVMHEALHNHYTQKSLSLSPHHHHHHHH
chain 2: QVQLVQSGAEVKKPGASVKVSCKASGYTFTDYEMHWIRQPPGQGLEWIGAIDGKTPDTAYSQKFKGRVTLTADKSTSTAYMELSSLTSEDTAVYYCTRFYSYTYWGQGTLVTVSSASVAAPSVFIFPPSDEQLKSGTASVVCLLNNFYPREAKVQWKVDNALQSGNSQESVTEQDSKDSTYSLSSTLTLSKADYEKHKVYACEVTHQGLSSPVTKSFNRGEC
B8: antibody-7: anti-human CD3ε chain and anti-human GPC3 bispecific antibody (antibody)
heavy: B7 heavy
light: B7 light
chain 1: B7 chain 1 with S94G, N96G, H98Q, P101Y
chain 2: B7 chain 2

Tested on: extracellular matrix (BD Matrigel)
Test: Assessment of the ECM-binding ability (ECL on BD Matrigel)
Details: fluorescence intensity relative to standard antibody MRAH-G1d/MRAL-k0

Molecule	ECM binding ratio (standard = 1)
B1	4.4
B2	2.5
B3	1.3
B4	3.3
B5	1.7
B6	1.6
B7	4.6
B8	1.4

— patent publication US20250066503A1, “CELL INJURY INDUCING THERAPEUTIC DRUG FOR USE IN CANCER THERAPY” (CHUGAI SEIYAKU KABUSHIKI KAISHA, priority 2016, published 2025)
